# From publication PMC6151435, “Bioactivity In Vitro of Quercetin Glycoside Obtained in Beauveria bassiana Culture and Its Interaction with Liposome Membranes” (Molecules : A Journal of Synthetic Chemistry and Natural …, 2017)
# Some values come without a unit; they compare only within their column.
# Legend:
# [1] = Fluorescence measurements with MC540, TMA-DPH and DPH probes in liposome membranes; conditions: PC liposomes
# Description: Small unilamellar liposomes (SUV) consisted of phosphatidylcholine (egg-PC) were prepared in accordance with the methodology described by Gabrielska and Oszmiański. The lipids were dissolved in chloroform (100 mg/mL), evaporated to dryness under nitrogen and under vacuum for another 60 min. Subsequently, a phosphate buffer […] of pH 7.4 was added and liposomes were formed by mechanical shaking. Then SUVs were formed using a 20 kHz sonicator for 15 min. During sonication the samples were thermostated at 0–2 °C. In the study, PC liposomes at a concentration of 0.1 mg/mL in phosphate buffer (pH 7.4) were used. Liposomes prepared according to the presented-above procedure were used to determine the antioxidative activity and in fluorometric studies.
# The Q 7-MeGlu and Q effect on the hydrophilic and hydrophobic properties of the membrane was determined using the fluorometric method applying the MC540, TMA-DPH and DPH fluorescence probes according to the procedure described by Strugała et al.. Merocyanine 540 (MC540) is a probe that partitions into the membrane and orients parallel to the glycerol backbones of the lipids. The fluorescence intensity of MC540 emission was determined and expressed as relative intensity change in relation to control as a function of studied compounds concentration. The TMA-DPH and DPH probes are supposed to distribute in the hydrophobic part of the bilayer. All the fluorescent probes were used at 1 μM concentration. The DPH and TMA-DPH stock solutions were prepared in DMF, while the probe MC540 was dissolved in methanol. Liposomes were prepared according to procedure described in Section 3.6.1. The control samples contained liposomes and a fluorescent probe, while the study samples contained compounds (Q 7-MeGlu or Q at final concentrations 1, 5 and 10 µM). Liposomes suspended in buffer were incubated for 30 min with probe. In next step, Q 7-MeGlu or Q were added at final concentrations 1, 5 and 10 μM and incubated for 10 min. The excitation and emission wavelengths were as follows: for MC540 λex = 540 nm and λem = 590 nm, for TMA-DPH λex = 340 nm and λem = 430 nm, and for DPH probe λex = 360 nm and λem = 425 nm. Fluorescence anisotropy for TMA-DPH and DPH was calculated using the following equation [64]:(5) A=I∥−GI⊥/I∥+2GI⊥ where I∥ and I⊥ are fluorescence intensities observed in directions parallel and perpendicular, respectively to the polarization plane of the exciting wave. G is the apparatus constant dependent on the emission wavelength.
# The fluorescence experiment was conducted using a Cary Eclipse fluorimeter (Varian, Palo Alto, CA, USA). Measurements were carried out at room temperature (approx. 20 °C). The experiment was performed in six replicates (n = 6).
# [2] = system: T1, human serum albumin (HSA); assay: Binding to human serum albumin (fluorescence quenching); conditions: for ∆H / ∆S: Van't Hoff, 300–315 K
# T1 construct: purchased Sigma-Aldrich
# Source text: Fluorescence quenching induced by studied molecules is described using the well-known Stern-Volmer equation [53]:(1) F0/F=1+Kqτ0[Qu]=1+KSV[Qu] where: F0 and F are HSA fluorescence intensities before and after adding quencher, respectively, Kq is a bimolecular quenching constant, τ0 is life time of the fluorophore in the absence of quencher (the fluorescence life time of a biopolymer is about 5 × 10^−9 s, [Qu] is the quencher concentration, and KSV is the Stern–Volmer quenching constant (KSV = Kq × τ0). The plot of F0/F against [Qu] at 310 K is shown in Figure 3A,B. The Stern–Volmer plots are evidently linear in the 1–16 μM range of concentration for studied compounds.
# The value of the binding constant Ka is crucial for understanding the distribution of the drug in plasma. A strong binding produces a decrease in plasma concentrations, […] the distribution and the pharmacological effect of the compound [55]. The apparent binding constant (Kb) and number of binding sites (n) can be calculated using the following equation:(2) log(F0−F/F)=logKb+nlog[Qu]
# The interaction forces between a drug and a biomacromolecule may include hydrophobic forces, electrostatic interactions, van der Waals interactions, hydrogen bonds, etc. The thermodynamic parameters of binding reaction are the main evidence for confirming a binding force. In order to elucidate the binding mode, the binding constant for flavonoid–HSA complex formation was evaluated at four different temperatures. The thermodynamic parameters of the binding process can be calculated using the Van’t Hoff equation [60]:(3) lnKb=−ΔH/RT+ΔS/R
# The enthalpy change ∆H is calculated on the basis of the slope of lnKb vs. […] plot. The free-energy change ΔG is estimated on the basis of the following equation:(4) ΔG=ΔH−TΔS=−RTlnKb where: ΔH ΔG and ΔS are enthalpy, free enthalpy and entropy change, respectively. R is the gas constant 8.314 J·mol^−1·K^−1.
# Analysis of Q 7-MeGlu and Q interaction with human serum albumin (HSA) was performed according to the procedure described by Strugała et al.. The fluorescence measurements were performed on a Cary Eclipse fluorimeter equipped with 1.0 cm quartz cells and a thermostat bath. All quenching experiments were performed at 300, 305, 310 and 315 K for HSA in a phosphate buffer solution of pH 7.4 and final concentration 1.5 × 10^−5 M. The excitation wavelength was set at 280 nm (excitation of the Trp and Tyr), and the emission spectra were read at 285–460 nm. The excitation and emission slits were both set to 5 nm. Our method consisted in tracking the quenching of natural HSA fluorescence caused by Q 7-MeGlu and Q (of final concentrations 1, 2, 4, 6, 8, 10, 12, 14 and 16 µM) added successively. The stock solutions of Q 7-MeGlu and Q were prepared by dissolving in methanol. Control sample contained appropriate amount of methanol. […] The experiment was performed in three independent replicates (n = 3).
# [3] = 1H-NMR study of interaction with DPPC liposomes (PrCl3 shift reagent); conditions: 0.24 mM compound, DPPC 36 mM, 325 K
# Description: The ^1H-NMR method of investigating the Q 7-MeGlu and Q interaction with liposomes was described earlier by Gabrielska et al. with minor modifications. Mixtures of phospholipids (DPPC) with studied compounds were co-dissolved in a chloroform/methanol mixture (55:1 v/v) at the respective concentrations. The lipid concentration in the sample was 36 mM and that of Q 7-MeGlu and Q was 0.24 mM […]. The samples were first evaporated under a stream of nitrogen and then in a vacuum (overnight). Then the samples were hydrated with D2O and vigorously shaken (15 min) at temperature above the main phase transition of lipid (41 °C) until optical homogeneity of the mixture was reached. Next, the lipid suspension was sonicated with a 20 kHz sonicator (20 kHz, Sonic, Italy) to yield a homogeneous lipid dispersion. Briefly, before the measurements a 4 mM praseodymium trichloride (PrCl3 × 6H2O) in heavy water solution […] was added to the sample of 0.6 mL liposome suspension. ^1H-NMR parameters were as follows: spectral window 12.019 Hz, digital resolution 0.183 Hz, acquisition and delay times 2.73 s and 1.00 s, respectively, and acquisition temperature 325 K. The experiment was performed in two replicates.
Structure (SMILES),DPH Anisotropy Change from Control ([1]; 1 µM compound),MC540 Intensity Change from Control ([1]; 1 µM compound),TMA-DPH Anisotropy Change from Control ([1]; 1 µM compound),DPH Anisotropy Change from Control ([1]; 5 µM compound),MC540 Intensity Change from Control ([1]; 5 µM compound),TMA-DPH Anisotropy Change from Control ([1]; 5 µM compound),DPH Anisotropy Change from Control ([1]; 10 µM compound),MC540 Intensity Change from Control ([1]; 10 µM compound),TMA-DPH Anisotropy Change from Control ([1]; 10 µM compound),n (number of binding sites) ([2]; T 300 K),∆G ([2]; T 300 K) [kJ/M],n (number of binding sites) ([2]; T 305 K),∆G ([2]; T 305 K) [kJ/M],n (number of binding sites) ([2]; T 310 K),∆G ([2]; T 310 K) [kJ/M],n (number of binding sites) ([2]; T 315 K),∆H [2] [kJ/M],∆S [2],Iout/Iin [3],Δδ (splitting of the ammonium group band) [3] [ppm],other results
"CO[C@H]1[C@H](O)[C@@H](O)[C@H](Oc2cc(O)c3c(=O)c(O)c(-c4ccc(O)c(O)c4)oc3c2)O[C@@H]1CO [Q 7-MeGlu, quercetin 7-O-β-D-(4″-O-methyl)glucopyranoside]",0.0614 ± 0.0359,−0.0269 ± 0.0137,0.0518 ± 0.0144,0.1257 ± 0.0193,−0.0955 ± 0.0010,0.0845 ± 0.0218,0.2674 ± 0.0584,−0.1240 ± 0.0189,0.1005 ± 0.0328,1.082 ± 0.025,-12.380 ± 0.286,1.024 ± 0.055,-11.810 ± 0.724,0.634 ± 0.026,-7.323 ± 0.343,0.437 ± 0.011,-164.46 ± 5.590,−504.768 ± 18.919 J/(M·K),0.8646,0.1000,∆G ([2]; T 315 K): -5.196 ± 0.151 kJ/M; ν -CH2 (full width at half height) [3]: 0.1179 ppm; ν -CH3 (full width at half height) [3]: 0.0627 ppm; ν -N+-(CH3)3in (full width at half height) [3]: 0.0323 ppm; ν -N+-(CH3)3out (full width at half height) [3]: 0.0882 ppm
"O=c1c(O)c(-c2ccc(O)c(O)c2)oc2cc(O)cc(O)c12 [Quercetin, 3,3′,4′,5,7-pentahydroxyflavone]",0.2943 ± 0.0708,−0.2890 ± 0.0289,0.1619 ± 0.0133,0.7464 ± 0.0649,−0.4585 ± 0.0660,0.2449 ± 0.0122,0.9661 ± 0.0511,−0.5580 ± 0.0012,0.3708 ± 0.0674,1.048 ± 0.145,-13.444 ± 1.962,1.014 ± 0.176,-13.167 ± 2.319,0.801 ± 0.055,-10.755 ± 0.812,0.645 ± 0.023,-132.616 ± 3.859,−390.267 ± 12.102 J/(M·K),1.3305,0.1560,ν -CH2 (full width at half height) [3]: 0.1181 ppm; ν -CH3 (full width at half height) [3]: 0.0604 ppm; ν -N+-(CH3)3in (full width at half height) [3]: 0.0261 ppm; ν -N+-(CH3)3out (full width at half height) [3]: 0.0799 ppm
